Reference: publication PMC12619835
No constants are given. Whether binding was seen depends on the method and setting. In cells and extracts the contact can be indirect. Here binding means that the protein was enriched with, or labelled near, the bait; the list need not be complete. No binding means not detected with the bait.

Chains of the proteins cited; added tags and fusions are not shown.
UniProt Q13887: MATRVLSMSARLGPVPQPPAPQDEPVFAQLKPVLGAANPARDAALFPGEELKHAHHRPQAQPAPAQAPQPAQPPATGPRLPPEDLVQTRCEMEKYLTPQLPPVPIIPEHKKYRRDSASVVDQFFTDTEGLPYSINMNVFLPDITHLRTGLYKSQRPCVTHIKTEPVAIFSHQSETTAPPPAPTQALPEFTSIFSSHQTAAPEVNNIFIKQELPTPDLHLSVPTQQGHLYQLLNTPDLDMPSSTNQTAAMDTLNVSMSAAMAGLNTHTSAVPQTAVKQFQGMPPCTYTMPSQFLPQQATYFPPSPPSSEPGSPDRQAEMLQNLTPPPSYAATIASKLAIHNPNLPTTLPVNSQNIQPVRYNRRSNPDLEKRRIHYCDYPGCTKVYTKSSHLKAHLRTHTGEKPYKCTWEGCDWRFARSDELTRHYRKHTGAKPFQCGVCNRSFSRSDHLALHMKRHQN

Target: recombinant MBP-tagged KLF5 (human) (UniProt Q13887)
Assay: affinity purification with mass spectrometry; purified MBP-KLF5 (MBP alone as control) held on magnetic protein G beads by an MBP antibody; Benzonase-treated, pre-cleared AsPC-1 nuclear extract, 1-2 h; washes with 120 mM NaCl; 4 °C; three replicates; only the target purified

binding: no binding
B1: TADA2B (protein, UniProt Q86TJ2 1-420)
chain: MAELGKKYCVYCLAEVSPLRFRCTECQDIELCPECFSAGAEIGHHRRYHGYQLVDGGRFTLWGPEAEGGWTSREEQLLLDAIEQFGFGNWEDMAAHVGASRTPQEVMEHYVSMYIHGNLGKACIPDTIPNRVTDHTCPSGGPLSPSLTTPLPPLDISVAEQQQLGYMPLRDDYEIEYDQDAETLISGLSVNYDDDDVEIELKRAHVDMYVRKLKERQRRKNIARDYNLVPAFLGKDKKEKEKALKRKITKEEKELRLKLRPLYQFMSCKEFDDLFENMHKEKMLRAKIRELQRYRRNGITKMEESAEYEAARHKREKRKENKNLAGSKRGKEDGKDSEFAAIENLPGFELLSDREKVLCSSLNLSPARYVTVKTIIIKDHLQKRQGIPSKSRLPSYLDKVLKKRILNFLTESGWISRDAS
